## Cleaved PARP in drug-treated melanoma cells

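The test systems are human melanoma cell lines, treated with two drugs together for 72 h and then stained and imaged. The read-out is the fraction of cleaved-PARP-positive nuclei, in % of that fraction in the DMSO control; 200 means twice the control level of this apoptosis marker. Concentrations were fixed for each drug; these are the higher of two levels. No replicate spread is given; individual values may be noisy. Basal and induced levels differ widely between cell lines.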
Only some of the drugs and lines screened are listed, without regard to their results.
A dash means that no value is listed here.

Compounds and concentrations:
temozolomide: Cn1nnc2c(C(N)=O)ncn2c1=O at 10 µM
vincristine: CC[C@]1(O)C[C@H]2CN(CCc3c([nH]c4ccccc34)[C@@](C(=O)OC)(c3cc4c(cc3OC)N(C=O)[C@H]3[C@@](O)(C(=O)OC)[C@H](OC(C)=O)[C@]5(CC)C=CCN6CC[C@]43[C@@H]65)C2)C1 at 0.0005 µM
NVP-TAE684: COc1cc(N2CCC(N3CCN(C)CC3)CC2)ccc1Nc1ncc(Cl)c(Nc2ccccc2S(=O)(=O)C(C)C)n1 at 0.4 µM
vorinostat: O=C(CCCCCCC(=O)Nc1ccccc1)NO at 0.4 µM
crizotinib: C[C@@H](Oc1cc(-c2cnn(C3CCNCC3)c2)cnc1N)c1c(Cl)ccc(F)c1Cl at 1 µM
SNS-314: O=C(Nc1cccc(Cl)c1)Nc1ncc(CCNc2ncnc3ccsc23)s1 at 0.004 µM
dorsomorphin: c1cc(-c2cnn3cc(-c4ccc(OCCN5CCCCC5)cc4)cnc23)ccn1 at 2 µM
tamatinib: COc1cc(Nc2ncc(F)c(Nc3ccc4c(n3)NC(=O)C(C)(C)O4)n2)cc(OC)c1OC at 2 µM
CHIR-265: Cn1c(Nc2ccc(C(F)(F)F)cc2)nc2cc(Oc3ccnc(-c4ncc(C(F)(F)F)[nH]4)c3)ccc21 at 0.4 µM
ENMD-2076: Cc1cc(Nc2cc(N3CCN(C)CC3)nc(/C=C/c3ccccc3)n2)n[nH]1 at 0.2 µM
bexarotene: C=C(c1ccc(C(=O)O)cc1)c1cc2c(cc1C)C(C)(C)CCC2(C)C at 10 µM
bortezomib: CC(C)C[C@H](NC(=O)[C@H](Cc1ccccc1)NC(=O)c1cnccn1)B(O)O at 0.005 µM
docetaxel: CC(=O)O[C@@]12CO[C@@H]1C[C@H](O)[C@@]1(C)C(=O)[C@H](O)C3=C(C)[C@@H](OC(=O)[C@H](O)[C@@H](NC(=O)OC(C)(C)C)c4ccccc4)C[C@@](O)([C@@H](OC(=O)c4ccccc4)[C@H]21)C3(C)C at 0.0005 µM
GW2580: COc1ccc(COc2ccc(Cc3cnc(N)nc3N)cc2OC)cc1 at 5 µM
NVP-BEZ235: Cn1c(=O)n(-c2ccc(C(C)(C)C#N)cc2)c2c3cc(-c4cnc5ccccc5c4)ccc3ncc21 at 0.02 µM
indole-3-carbinol: OCc1c[nH]c2ccccc12 at 4 µM
STA-4783: CN(NC(=O)CC(=O)NN(C)C(=S)c1ccccc1)C(=S)c1ccccc1 at 0.03 µM
PF-562271: CN(c1ncccc1CNc1nc(Nc2ccc3c(c2)CC(=O)N3)ncc1C(F)(F)F)S(C)(=O)=O at 0.4 µM

Pair | A375 | COLO 829 | A101D | MEL-HO | WM451Lu | SK-MEL-2 | SK-MEL-28 | 501mel | WM1745 | IST-MEL1
docetaxel + NVP-BEZ235 | 63.7 | 384 | 243 | 74.5 | 497 | 1420 | 912 | - | 245 | 72.1
indole-3-carbinol + dorsomorphin | 64.5 | 100 | 167 | 173 | 106 | 43.8 | 67.9 | 125 | - | 20.3
NVP-BEZ235 + bexarotene | 127 | 76.6 | 98.7 | 111 | 46.1 | 174 | 53.5 | - | 121 | 98.2
CHIR-265 + vorinostat | - | 187 | 426 | 107 | 511 | 245 | 324 | - | 123 | 170
dorsomorphin + SNS-314 | 103 | 76.8 | 43.5 | 42.3 | 246 | 180 | 91.3 | 310 | 218 | 145
GW2580 + CHIR-265 | 39.2 | 174 | 144 | 59.7 | 149 | 225 | 340 | 725 | 151 | 30.1
NVP-BEZ235 + dorsomorphin | 179 | 210 | 60.1 | 296 | 550 | 136 | 81.4 | 220 | - | 126
vincristine + ENMD-2076 | 113 | 290 | 59.5 | 77.8 | 134 | 238 | 47.9 | - | 220 | 269
NVP-BEZ235 + GW2580 | 168 | 206 | 520 | 49.3 | 57.4 | 55.7 | 393 | 52.3 | - | 89.7
vorinostat + docetaxel | - | 387 | 132 | 161 | 441 | 1710 | 263 | - | 149 | 152
bexarotene + vincristine | 27.0 | 122 | 119 | 143 | 63.2 | 174 | 72.3 | - | 126 | 229
NVP-TAE684 + PF-562271 | 178 | 75.6 | 167 | 161 | 769 | 321 | 226 | 307 | - | 193
NVP-BEZ235 + CHIR-265 | 87.8 | 237 | 295 | 75.9 | 496 | 537 | 97.5 | - | 176 | 81.8
temozolomide + STA-4783 | - | 842 | 222 | 38.9 | 62.0 | 115 | 294 | - | 561 | 131
GW2580 + STA-4783 | 44.6 | 172 | 80.9 | 94.1 | 89.4 | 55.3 | 108 | 464 | 244 | 236
SNS-314 + tamatinib | - | 169 | 250 | 107 | 377 | 232 | 682 | - | 351 | 29.4
vincristine + GW2580 | 159 | 105 | 217 | 80.1 | 4920 | 52.0 | 35.3 | 122 | - | 113
temozolomide + NVP-TAE684 | 88.5 | 76.2 | 339 | 106 | 175 | 116 | 223 | 106 | 154 | 153
NVP-TAE684 + SNS-314 | 39.6 | 121 | 145 | 44.8 | 535 | 340 | 131 | 279 | 271 | 48.6
bortezomib + ENMD-2076 | 209 | 4090 | 445 | 328 | 1330 | 269 | 94.1 | - | 948 | 659
indole-3-carbinol + bortezomib | 109 | 2950 | 576 | 121 | 602 | 219 | 222 | - | 344 | 1140
temozolomide + SNS-314 | - | 109 | 120 | 172 | 130 | 132 | 308 | - | 95.9 | 457
GW2580 + docetaxel | 487 | 279 | 349 | 1030 | 3080 | 1570 | 588 | 360 | - | 120
crizotinib + PF-562271 | 131 | 60.9 | 109 | 295 | 87.0 | 130 | 94.2 | - | 179 | 116
ENMD-2076 + dorsomorphin | 185 | 49.4 | 151 | 132 | 113 | 105 | 117 | 91.0 | - | 48.4
dorsomorphin + vincristine | 458 | 156 | 322 | 237 | 1940 | 1130 | 746 | 367 | - | 220
dorsomorphin + crizotinib | 273 | 82.7 | 148 | 93.8 | 192 | 95.2 | 468 | 290 | - | 100
tamatinib + GW2580 | 75.8 | 63.4 | 51.7 | 88.0 | 48.0 | 100 | 250 | 225 | 156 | 128

Some entries from above, unchanged:

Pair,A375,COLO 829,A101D,MEL-HO,WM451Lu,SK-MEL-2,SK-MEL-28,501mel,WM1745,IST-MEL1
ENMD-2076 + dorsomorphin,185,49.4,151,132,113,105,117,91.0,-,48.4
dorsomorphin + vincristine,458,156,322,237,1940,1130,746,367,-,220

Data from the primary screen of doi:10.1371/journal.pone.0140310, rounded.